From article PMC5397179
Positions count from the first letter of the chain named. Results are given in words; binding and its absence hold for the method and conditions named. In cells and extracts the contact can be indirect. Some binding calls cover weakened binding; strength is not graded here. For some assays here: Sequences can lack the tags named with a protein.

Protein sequences, listed by entry. Tags and fused reporters are not part of them. Lines headed by an entry give the natural chain unless they say otherwise; changes in a name come on top.
UniProt P20429: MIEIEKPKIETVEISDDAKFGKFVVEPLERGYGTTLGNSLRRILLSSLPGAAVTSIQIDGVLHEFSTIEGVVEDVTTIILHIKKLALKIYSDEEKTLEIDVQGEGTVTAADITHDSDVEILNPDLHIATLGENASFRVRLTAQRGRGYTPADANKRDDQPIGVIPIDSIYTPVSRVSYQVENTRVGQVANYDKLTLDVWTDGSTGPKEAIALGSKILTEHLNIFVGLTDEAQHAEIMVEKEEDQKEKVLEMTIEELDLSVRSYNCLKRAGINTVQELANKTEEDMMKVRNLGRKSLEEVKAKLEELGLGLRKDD

Legend:
[1] = molecular target: T1, Biotinylated full length PcrA (Geobacillus stearothermophilus), wild type (Geobacillus stearothermophilus) (UniProt P56255); experiment: pull-down; biotinylated purified bait on streptavidin-coated magnetic beads; prey: DNA/RNA-depleted extract of B. subtilis 168; SDS-PAGE and western blot with an anti-RNAP beta antibody; only the target purified
T1 sequence (chain, biotin): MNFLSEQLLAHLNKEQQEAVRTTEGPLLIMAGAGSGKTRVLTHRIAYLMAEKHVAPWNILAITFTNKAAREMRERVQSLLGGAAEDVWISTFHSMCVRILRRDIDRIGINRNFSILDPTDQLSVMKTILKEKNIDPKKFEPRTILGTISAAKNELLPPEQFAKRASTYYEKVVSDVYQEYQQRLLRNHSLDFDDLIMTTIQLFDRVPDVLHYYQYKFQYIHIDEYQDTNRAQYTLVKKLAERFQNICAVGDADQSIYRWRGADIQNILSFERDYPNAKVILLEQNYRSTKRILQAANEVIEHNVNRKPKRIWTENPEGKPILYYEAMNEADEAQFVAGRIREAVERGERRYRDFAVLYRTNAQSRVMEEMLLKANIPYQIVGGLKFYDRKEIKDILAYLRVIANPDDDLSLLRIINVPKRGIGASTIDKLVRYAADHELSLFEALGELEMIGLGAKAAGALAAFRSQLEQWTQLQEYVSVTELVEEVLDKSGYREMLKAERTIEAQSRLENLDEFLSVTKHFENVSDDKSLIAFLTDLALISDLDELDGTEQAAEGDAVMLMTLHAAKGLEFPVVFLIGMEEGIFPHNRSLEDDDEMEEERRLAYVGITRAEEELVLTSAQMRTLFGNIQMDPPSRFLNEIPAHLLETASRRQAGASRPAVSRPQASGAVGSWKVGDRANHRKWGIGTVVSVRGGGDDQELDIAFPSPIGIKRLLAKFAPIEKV

[2] = molecular target: T2, Biotinylated full length PcrA L714A (Geobacillus stearothermophilus) (UniProt P56255); experiment: as above
T2 sequence (chain, biotin): T1 sequence (chain, biotin) with L714A

[3] = molecular target: T3, Biotinylated full length PcrA K712A (Geobacillus stearothermophilus) (UniProt P56255); experiment: as above
T3 sequence (chain, biotin): T1 sequence (chain, biotin) with K712A

[4] = molecular target: T4, His-tagged PcrA-Ct (C-terminal domain of Geobacillus stearothermophilus PcrA, residues 653-724) (Geobacillus stearothermophilus) (UniProt P56255); experiment: pull-down; His-tagged purified bait on Ni2+-NTA magnetic beads; prey: DNA/RNA-depleted extract of B. subtilis 168; SDS-PAGE and western blot with an anti-RNAP beta antibody; only the target purified
T4 sequence: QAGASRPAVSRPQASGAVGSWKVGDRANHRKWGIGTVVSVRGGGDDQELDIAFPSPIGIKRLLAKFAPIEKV

[5] = molecular target: T5, His-tagged PcrA-short Ct (PcrA-sCt, residues 673-724 of Geobacillus stearothermophilus PcrA) (Geobacillus stearothermophilus) (UniProt P56255); experiment: as above
T5 sequence: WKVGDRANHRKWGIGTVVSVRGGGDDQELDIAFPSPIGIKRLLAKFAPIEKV

## Bacillus subtilis RNA polymerase (RNAP), endogenous in cell extract (from UniProt P20429 1-314; P37870 1-1193; P37871 1-1199; P12464 1-173; O35011 1-67) (complex)
[1]
  binding: binds
[2]
  binding: binds weakly
[3]
  binding: binds weakly
[4]
  binding: binds
[5]
  binding: binds
